PubChem BioAssay AID504784 – Drosophila RNAi Screening Center – 2011

Purpose: 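Genome-wide knock-down for genes giving too much or too little stored lipid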 (primary screen)
System: Drosophila Kc167 embryonic cells
Reagents: long dsRNA against Drosophila genes, about 250 ng dsRNA per well
Time to read-out: 4 days
Conditions: cells fed 400 µM oleic acid bound to BSA
Read-out: 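Microscope images give a droplet-to-nucleus area ratio, taken as log and converted to a screen-wide B-score; higher values mean greater lipid storage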
Scale: droplet/nuclear area B-score: higher = more stored lipid (overstorage)
The deposit covers about 17,000 reagents; this is an unselected part of those that have a named target and a result. 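Each column is one replicate's B-score; the combined score over replicates was not deposited, so single values may mislead.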 Reagents against one gene are numbered here. Names joined by + are all predicted targets of the reagent.

Gene	reagent no.	droplet/nuclear area B-score, replicate 1	droplet/nuclear area B-score, replicate 2	droplet/nuclear area B-score, replicate 3
CG3251 (GeneID 33671)	1	-0.653	-0.4	
Ack (GeneID 38489)	1	-0.947	-1.02	
CG30486 (GeneID 246645)	1	-1.44	-1.27	
wuho (GeneID 31566)	1	-1.66		
cta (GeneID 3355131)	1	-0.201	-1.41	
tRNA:Leu-CAA-2-3 (GeneID 3772601)	1	1.19	1.92	
CG17928 (GeneID 35009)	1	0.422	1.06	
Zmynd10 (GeneID 39481)	1	-0.573	0.037	
DUBAI + Tmem18	1	0.674	-0.00318	
CG2063 (GeneID 35952)	1	0.807	-0.0504	
CG1703 (GeneID 32112)	1	-0.68	-1.57	0.0125
Gnf1 (GeneID 40607)	1	-1.9	1.98	
CG5886 (GeneID 43125)	1	-0.452		
CG11095 (GeneID 32348)	1	1.08	-0.237	-1.92
kl-3 (retired record) (GeneID 5740653)	1	-1.53	-1.1	
kl-3 (retired record) (GeneID 5740653)	2	-0.53	0.338	
kl-3 (retired record) (GeneID 5740653)	3	1.16	-0.602	
Rrp46 (GeneID 41270)	1	0.00492	-0.0143	
Rad23 (GeneID 43785)	1	0.00854		
CG3045 (GeneID 37531)	1	1.57	-0.00731	
mIF3 (GeneID 36335)	1	0.962	-1.83	
CG5756 (GeneID 37064)	1	0.702	-0.327	
Fbp1 (GeneID 39566)	1	0.032	-0.0557	
Taf4 (GeneID 39765)	1	0	-0.582	-1.05
CG7653 (GeneID 34935)	1	-0.0592	-0.778	
GatC + PolG2	1	0.992	-0.194	
CG14111 (GeneID 39497)	1	0.804	0.0692	
byn (GeneID 39349)	1	-0.865	-0.136	
CG2116 (GeneID 31735)	1	1.57	0.766	0.119
CG6209 (GeneID 36517)	1	-0.573	-1.38	
Dop1R2 (GeneID 43484)	1	0.642	0.363	
Dop1R2 (GeneID 43484)	2	0.00581	-1.14	
l(3)mbt (GeneID 43288)	1	1.87		
CG17931 + CG42446	1	0.228	-1.51	
AP-1sigma (GeneID 42835)	1	-1.16	4.45	
ERp44 (GeneID 32588)	1	-0.242	0.949	0.716
Nep4 (GeneID 42449)	1	-0.178	0.865	
sunn (GeneID 326196)	1	1.87	-0.392	
CG12984 (GeneID 40321)	1	2.22	1.54	
Set (GeneID 41844)	1		4.13	
Vtld + CG42529	1	0.241	-0.878	
CG5888 (GeneID 34980)	1	-2.45	-0.108	
HP1D3csd (GeneID 32906)	1	0.182	0.49	
CG10486 (GeneID 38664)	1	1.32	1.67	
Klp98A (GeneID 43310)	1	-0.167	-0.401	
Klp98A (GeneID 43310)	2	-1.57	0.188	
sNPF-R (GeneID 40195)	1	-1.51	1	
CG17633 (GeneID 34297)	1	-0.244	-0.194	
CG31954 (GeneID 33572)	1	0.886	0.687	
Prosalpha4T1 (GeneID 42457)	1	-0.0588	-1.24	
Yif1 (GeneID 43217)	1	-0.63	-0.126	
Tep1 (GeneID 34937)	1	0.0911	0.0301	
Or46a (GeneID 2768728)	1	-1.14	-0.154	
Or46a (GeneID 2768728)	2	-2.19	-0.385	
Or46a (GeneID 2768728)	3	-0.817	0.43	
CG17780 (GeneID 42914)	1	-0.0676	1.06	
CG12056 (GeneID 31855)	1	-1.81	0.366	-1.36
CG32686 (GeneID 318153)	1	0.0421	-1.36	
CG2147 (GeneID 31759)	1	7.17	3.34	0.552
CG9427 (GeneID 41164)	1	0.733	-0.548	
CG13039 (GeneID 39805)	1	-0.685	0.0206	
Nrx-IV (GeneID 39387)	1	-0.621	0.356	

Sorted by “droplet/nuclear area B-score, replicate 1” (descending): 6 of the entries above.
Gene	reagent no.	droplet/nuclear area B-score, replicate 1	droplet/nuclear area B-score, replicate 2	droplet/nuclear area B-score, replicate 3
CG2063 (GeneID 35952)	1	0.807	-0.0504	
DUBAI + Tmem18	1	0.674	-0.00318	
CG5886 (GeneID 43125)	1	-0.452		
Zmynd10 (GeneID 39481)	1	-0.573	0.037	
CG1703 (GeneID 32112)	1	-0.68	-1.57	0.0125
Gnf1 (GeneID 40607)	1	-1.9	1.98	

Further reagents follow.
Gene	reagent no.	droplet/nuclear area B-score, replicate 1	droplet/nuclear area B-score, replicate 2	droplet/nuclear area B-score, replicate 3
CG5953 (GeneID 34985)	1	0.131	-0.137	
CG5953 (GeneID 34985)	2	4.99	5.73	
CG2120 (GeneID 31737)	1	0.679	-0.112	
BomS1 (GeneID 37100)	1	1.47	3.79	
CG8531 (GeneID 36584)	1	-1.37	-1.44	
Cyp313a4 (GeneID 41563)	1	3.15	-0.481	
CG17944 (GeneID 40885)	1	1.44	-0.596	
CG30022 (GeneID 36233)	1	-0.206	0.0325	
CG6688 (GeneID 42716)	1	-1.55	0.403	
ppan (GeneID 42502)	1	0.657	2.02	
Karl (GeneID 32131)	1	-0.813	-0.201	-0.551
Ugt49B1 (GeneID 37420)	1	1.62		
Mdh2 (retired record) (GeneID 5656949)	1	-0.841	0.173	
Cyp6t2Psi (GeneID 3772355)	1	1.87	0.0368	
CG9812 (GeneID 37709)	1	-1.37	-0.682	
l(2)k10201 (GeneID 48373)	1	0.83	0.0546	
l(2)k10201 (GeneID 48373)	2	-0.243	0.0168	
Tsc1 (GeneID 42862)	1	-2.44	-1.97	
didum (GeneID 35680)	1	-0.916	-1.37	
SkpA (GeneID 31016)	1	1.2		
CG7497 (GeneID 39966)	1	0.029	-1.3	1.85
RpS15 (GeneID 36851)	1	2.41	1.37	
CG13539 (GeneID 37680)	1	0.737	-1.35	
Cipc (GeneID 43177)	1	0.521		
Cipc (GeneID 43177)	2	0.944	0.709	
Sec31 (GeneID 35877)	1	-0.999	3.85	
Act88F (GeneID 41885)	1	-1.24	-0.0336	
CG32192 (GeneID 317904)	1	0.973	1.43	
peo (GeneID 47272)	1	-2.76	0.658	
Drep3 (GeneID 36292)	1	-1.09	-0.457	0.00638
Drep3 (GeneID 36292)	2	-0.37	0.0849	
Drep3 (GeneID 36292)	3	-0.0246	0.0128	
CG32301 (GeneID 38285)	1	-1.19	0.326	
UK114 (GeneID 34897)	1	0.389	-0.767	
ppk3 (GeneID 246504)	1	0.0246	-0.0663	
Ugt304A1 (GeneID 53501)	1	-0.00293	-0.648	
CG11398 (GeneID 31070)	1	-0.301	-1.26	
eEF1beta (GeneID 45249)	1	0.0512	-0.573	
CG30423 (GeneID 246605)	1	0.00689	0.691	
Hex-t1 (GeneID 117364)	1	-0.288	-1.33	
CG12115 (GeneID 31853)	1	1.79	3.19	-0.0491
sinu (GeneID 46187)	1	-0.505	0.0753	
Pglym78 (GeneID 43447)	1	0.0162		
